# Assay results: publication PMC8616552
# Sequences of proteins named here, by UniProt entry; tags and fusion partners are left off.
# UniProt Q8C6L5: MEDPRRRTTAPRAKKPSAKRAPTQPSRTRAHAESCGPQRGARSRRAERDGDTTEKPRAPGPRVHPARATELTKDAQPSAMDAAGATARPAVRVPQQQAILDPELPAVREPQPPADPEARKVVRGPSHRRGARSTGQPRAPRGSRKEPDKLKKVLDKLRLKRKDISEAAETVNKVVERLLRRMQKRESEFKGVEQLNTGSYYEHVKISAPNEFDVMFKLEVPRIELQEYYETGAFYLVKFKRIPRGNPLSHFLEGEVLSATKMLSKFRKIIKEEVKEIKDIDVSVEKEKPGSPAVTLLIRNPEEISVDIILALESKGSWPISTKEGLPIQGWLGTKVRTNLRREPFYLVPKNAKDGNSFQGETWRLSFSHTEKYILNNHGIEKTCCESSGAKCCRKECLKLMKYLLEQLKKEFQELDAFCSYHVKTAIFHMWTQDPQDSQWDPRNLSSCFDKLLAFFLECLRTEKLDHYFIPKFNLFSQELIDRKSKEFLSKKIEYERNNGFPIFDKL
# These are yes or no findings as the source states them, for the method shown. Binding seen in cells or lysates may run through a third protein.
# B1: TRAF-family member associated NF-κB activator (TANK) (protein, UniProt P70347 1-448)
# chain: MSLKRHSLRRNACHLETRAGIPTILYSDATGQRGMDKNIGEQLNRAYEAFRQACMDRDSAVRELQQKQTENYEQRIREQQEQLSFQQNLIDRLKSQLLLVDSSRDNSYGYVPLLEDSDRRKNNLTLDEPHDKVKLGTLRDKQSKVRRQEVSSGKESAKGLNIPLHHERDNIEKTFWDLKEEFHRICLLAKAQKDHLSKLNIPDIATDTQCSVPIQCTDKTEKQEALFKPQAKDDINRGMSCVTAVTPRGLGRDEEDTSFESLSKFNVKFPPMDNDSIFLHSTPEAPSILAPATPETVCQDRFNMEVRDNPGNFVKTEETLFEIQGIDPITSAIQNLKTTDKTNPSNLRATCLPAGDHNVFYVNTFPLQDPPDAPFPSLDSPGKAVRGPQQPFWKPFLNQDTDLVVPSDSDSELLKPLVCEFCQELFPPSITSRGDFLRHLNTHFNGET
# Target: cyclic GMP-AMP (cGAMP) synthase (cGAS) (UniProt Q8C6L5)
# Assay: co-IP; HEK293 cells expressing the indicated plasmids, stimulated with double-stranded DNA for 6 h; lysates immunoprecipitated with anti-HA Ab, then immunoblotting
binder,measurement,value
B1,binding,no binding
